At least one compound was matched to its structure with a doubt left.
System: neurones corticaux
Test: Survival of cortical neurons after Aβ1-42 intoxication (MAP-2 immunostaining)
Type: cell-based, rats
Settings: estradiol 100 nM, 1 h pre-incubation, Aβ1-42 10 µM, 24 h
Procedure: Des neurones corticaux de rats sont mis en culture comme dans la méthode décrite par Singer (1999) J. Neurosci. 19:2455-2463. Des rats femelles enceintes de 15 jours sont tuées par dislocation des cervicales (Rats Wistar, Janvier) et le fœtus est retiré de l'utérus. Les cortex sont prélevés et placés dans un milieu glacé de Leibovitz (L15, Panbiotech, Réf : P04-27055, lot : 9310614) contenant 2% de pénicilline (10 000 U/ml) et de streptomycine (10 mg/ml) (PS, Panbiotec, Réf : P06-07100, lot : 48101114) et 1% de sérum-albumine bovine (BSA, Panbiotech, Réf : P06-1391100, lot : H140603). Les cortex sont dissociés par trypsination (0,05% Panbiotech, Réf : P10-023100, lot : 5890314) pendant 20 minutes à 37°C. La réaction est stoppée par addition d'un milieu Eagle modifié de Dulbecco (DMEM, Panbiotech, réf P04-03600, lot : 9670913) contenant de la DNase I grade Il (0,1 mg/ml Panbiotech, Réf : P60-37780100, lot : H140508) et 10 % de sérum de veau fœtal (FCS, Invitrogen, Réf : 10270 à 098, lot : 41Q4120K). Les cellules sont dissociées mécaniquement par 3 passages à travers une pipette de 10 ml. Les cellules sont ensuite centrifugées à 515 g pendant 10 minutes à 4°C. […]

C[C@]12CC[C@@H]3c4ccc(O)cc4CC[C@H]3[C@@H]1CC[C@@H]2O [estradiol]
niveau de marquage des neurones pour MAP-2 (survie des neurones): restauré
